These are yes or no findings as the source states them, for the method shown. In cells and extracts the contact can be indirect. A result given as binding can be weak or reduced; the word gives no strength.
Tests used:
[1] = target: T1, Lysosomal associated membrane protein 1 (LAMP1) (UniProt P14562); assay: co-IP; cell lysates in Co-IP lysis buffer with protease inhibitor, 2 ug primary antibody or IgG, protein A/G beads overnight at 4°C, three washes, Western blotting
T1 sequence: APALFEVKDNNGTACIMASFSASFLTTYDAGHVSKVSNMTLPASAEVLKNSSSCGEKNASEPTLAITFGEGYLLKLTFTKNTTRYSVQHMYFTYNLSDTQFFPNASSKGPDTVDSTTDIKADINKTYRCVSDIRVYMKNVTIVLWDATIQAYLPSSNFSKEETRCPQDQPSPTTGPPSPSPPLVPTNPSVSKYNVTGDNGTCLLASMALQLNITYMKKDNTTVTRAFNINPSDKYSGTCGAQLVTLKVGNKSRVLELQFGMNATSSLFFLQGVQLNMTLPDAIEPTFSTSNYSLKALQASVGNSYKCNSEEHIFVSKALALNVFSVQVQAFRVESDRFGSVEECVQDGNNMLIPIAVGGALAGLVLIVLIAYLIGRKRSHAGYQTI

[2] = target: T2, JNK-interacting protein-2 (JIP2) (rat (endogenous in H9C2)) (UniProt G3V9M2); assay: as above
T2 sequence: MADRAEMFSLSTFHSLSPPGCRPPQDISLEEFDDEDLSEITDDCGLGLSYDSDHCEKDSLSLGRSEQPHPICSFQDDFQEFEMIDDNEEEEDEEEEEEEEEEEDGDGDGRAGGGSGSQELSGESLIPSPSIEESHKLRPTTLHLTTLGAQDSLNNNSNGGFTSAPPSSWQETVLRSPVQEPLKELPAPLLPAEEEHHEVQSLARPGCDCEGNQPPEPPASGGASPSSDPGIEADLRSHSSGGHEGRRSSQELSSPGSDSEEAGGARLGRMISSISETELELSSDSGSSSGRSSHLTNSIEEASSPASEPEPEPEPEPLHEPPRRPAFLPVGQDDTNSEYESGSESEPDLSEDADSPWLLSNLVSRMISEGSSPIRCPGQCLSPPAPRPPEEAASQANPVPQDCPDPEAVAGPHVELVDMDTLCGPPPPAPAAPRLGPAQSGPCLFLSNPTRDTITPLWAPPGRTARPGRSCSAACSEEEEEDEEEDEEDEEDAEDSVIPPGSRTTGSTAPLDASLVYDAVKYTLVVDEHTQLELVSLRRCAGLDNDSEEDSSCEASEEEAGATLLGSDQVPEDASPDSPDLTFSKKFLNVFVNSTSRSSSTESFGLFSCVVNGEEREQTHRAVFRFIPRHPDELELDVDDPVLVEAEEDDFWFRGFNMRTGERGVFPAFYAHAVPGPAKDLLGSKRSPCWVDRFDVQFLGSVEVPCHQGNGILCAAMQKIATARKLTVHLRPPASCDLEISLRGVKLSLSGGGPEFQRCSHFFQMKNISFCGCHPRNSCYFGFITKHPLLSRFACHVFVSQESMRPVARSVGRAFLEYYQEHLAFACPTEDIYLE

- binding [1]: binds
- binding [2]: binds
Substance: C1q/tumor necrosis factor-related protein 3 (CTRP3)
